Measured values published in patent publication US7101988B2, “Polyvalent cation-sensing receptor in Atlantic salmon” (MariCal, Inc., priority 2000, dated 2006).
No constants are given. Whether binding was seen depends on the method and setting. Some results given as binding are weak or reduced against the parent protein; the word gives no strength.

Chains of the proteins cited; added tags and fusions are not shown. Lines headed by an entry give the natural chain unless they say otherwise; changes in a name come on top.
UniProt P41180: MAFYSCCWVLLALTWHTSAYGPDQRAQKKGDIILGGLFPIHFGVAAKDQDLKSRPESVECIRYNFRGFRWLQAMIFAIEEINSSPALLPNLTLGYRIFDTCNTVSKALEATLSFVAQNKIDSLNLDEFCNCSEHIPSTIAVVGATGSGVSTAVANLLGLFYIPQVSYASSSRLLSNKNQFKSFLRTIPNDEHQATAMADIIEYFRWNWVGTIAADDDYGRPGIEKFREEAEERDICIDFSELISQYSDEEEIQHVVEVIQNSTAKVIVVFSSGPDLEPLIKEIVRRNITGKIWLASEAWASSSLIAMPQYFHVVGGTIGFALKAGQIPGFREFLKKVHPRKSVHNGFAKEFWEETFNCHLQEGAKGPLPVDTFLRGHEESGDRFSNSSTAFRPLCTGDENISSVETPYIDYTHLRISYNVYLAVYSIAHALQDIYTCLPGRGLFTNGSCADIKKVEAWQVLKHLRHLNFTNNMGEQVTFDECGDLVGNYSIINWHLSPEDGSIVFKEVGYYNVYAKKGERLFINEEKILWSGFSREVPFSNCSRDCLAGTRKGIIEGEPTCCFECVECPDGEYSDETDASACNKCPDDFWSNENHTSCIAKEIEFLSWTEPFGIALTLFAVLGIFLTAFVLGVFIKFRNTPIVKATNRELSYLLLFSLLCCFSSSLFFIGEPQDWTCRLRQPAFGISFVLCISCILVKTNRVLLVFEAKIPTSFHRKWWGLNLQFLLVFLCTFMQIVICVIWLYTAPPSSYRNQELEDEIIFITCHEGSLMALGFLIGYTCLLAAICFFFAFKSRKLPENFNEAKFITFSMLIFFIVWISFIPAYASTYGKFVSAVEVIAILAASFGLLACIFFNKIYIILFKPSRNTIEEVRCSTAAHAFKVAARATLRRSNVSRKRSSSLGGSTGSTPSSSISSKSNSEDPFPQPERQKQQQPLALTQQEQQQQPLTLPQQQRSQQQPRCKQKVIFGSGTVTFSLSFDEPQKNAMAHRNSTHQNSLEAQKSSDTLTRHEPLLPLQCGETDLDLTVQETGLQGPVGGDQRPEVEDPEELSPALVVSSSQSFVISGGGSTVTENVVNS

Molecular target: Human Parathyroid Calcium Receptor (HuPCaR) (human) (UniProt P41180)
Test: immunoblot with SDD antiserum; self-association

B1: Human Parathyroid Calcium Receptor (HuPCaR) (receptor)
chain: YSPSQPAQKKGDIILGGLFPIHFGVAAKDQDLKSRPESVECIRYNFRGFRWLQAMIFAIEEINSSPALLPNLTLGYRIFDTCNTVSKALEATLSFVAQNKIDSLNLDEFCNCSEHIPSTIAVVGATGSGVSTAVANLLGLFYIPQVSYASSSRLLSNKNQFKSFLRTIPNDEHCATAMADIIEYFRWNWVGTIAADDDYGRPGIEKFREEAEERDICIDFSELISQYSDEEEIQMVVEVIQNSTAKVIVVFSSGPDLEPLIKEIVPRNITGKIWLASEAWASSSLIAMPQYFHVVGGTIGFALKAGQIPGFREFLKKVHPPKSVNNGFAKEFWEETFMCHLQEGAKGPLPVDTFLAGHEESGDRFSNSSTAFPPLCTGDENISSVETPYIDYTNLRISYNVYLAVYSIANALQDIYTCLPGRGLFTNGSCADIKKVEAWQVLKHLRNLNFTNNMGEQVTFDECGDLVGNYSIINWHLSPEDGSIVFKEVGYYNVYAKKGERLFINEEKILWSGFSREVPFSNCSRDCLAGTRKGIIEGEPTCCFECVECPDGEYSDETDASACNKCPDDFWSNENHTSCIAKEIEFLSWTEPFGIALTLFAVLGISLTAFVLGVFIKFRNTPIVKATNRELSYLLLFSLLCCFSSSLFFIGEPQDWTCRLRQPAFGISFVLCISCILVKTNRVLLVFEAKIPTSFMFKWWGLNLQFLLVFLCTFNQIVICVIWLYTAPPSSYRNQELEDEIIFITCNEGSLMALGFLIGYTCLLAAICFFFAFKSRKLPENFNEAKFITFSMLIFFIVWISFIPAYASTYGKFVSAVEVIAILAASFGLLACIFFNKIYIILFKPSRNTIEEVRCSTAANAFKVAARATLRRSNVSRKRSSSLGGSTGSTPSSSISSKSNSEDPFPRPERQKQQQPLALTQQEQQQQPLTLPQQQRSQQQPRCKQKVIFGSGTVTFSLSFDEPQKNAMANRNSTNQNSLEAQKSSDTLTANQPLLPLQCGETDLDLTVQETGLQGPVGGDQRPEVEDPEELSPALVVSSSQSFVISGGGSTVTENVVNS
binding: binds
